Source: the supplement of paper PMC12823440, “Inhibitors supercharge kinase turnover through native proteolytic circuits” (Nature, 2025)
Where a name gives a salt, the structure may show the parent alone. Some of the results follow. The calls rarely recur for the same compound in another form.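 Kinases, fused to nanoluciferase, were expressed in K562 cells; luminescence was measured every 4 h from 2 to 18 h as percent of control (DMSO = 100%, positive control = 0%). A time point is decreased if signal falls significantly (2 sigma). Hits were called by the authors by a rule that is not shown; the count of time points alone does not decide it.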

target: RAF1 (UniProt P04049); assay: kinase-Nluc reporter destabilization hit call (1 = scored as downregulated) (binary); higher = compound decreases kinase abundance; settings: 2.5 µM; K562; 2-18 h

kinase-Nluc reporter destabilization hit call, inactive:
CN1CCCN(C(=O)c2cccc(-c3ccc(/C=C4/C(=O)Nc5ccc(Cl)cc54)o3)c2)CC1 [CX-6258 (hydrochloride)] 0
Clc1ccc(C2(c3ccc(-c4cn[nH]c4)cc3)CCNCC2)cc1 [AT7867 (dihydrochloride)] 0
CC(C)Oc1ccc(-c2nn([C@@H](C)c3oc4ccc(F)cc4c(=O)c3-c3cccc(F)c3)c3ncnc(N)c23)cc1F [Umbralisib] 0
C=CC(=O)Nc1cc(Nc2nccc(-c3cn(C)c4ccccc34)n2)c(OC)cc1N(C)CCN(C)C [Osimertinib] 0
COc1cc2c(Oc3ccc4[nH]c(C)cc4c3F)ncnc2cc1OCCCN1CCCC1 [Cediranib (maleate)] 0
CC(C)Oc1ccc(-c2nn([C@@H](C)c3oc4ccc(F)cc4c(=O)c3-c3cccc(F)c3)c3ncnc(N)c23)cc1F [Umbralisib (hydrochloride)] 0
COc1ccc(S(=O)(=O)N(CCO)c2ccccc2CN(C)C/C=C/c2ccc(Cl)cc2)cc1 [KN-93 (hydrochloride)] 0
C=CC(=O)N1CCN(c2ncnc3c(F)c(-c4c(O)cccc4F)c(Cl)cc23)CC1 0
COc1ccc(S(=O)(=O)Nc2ccccc2CN(C)C/C=C/c2ccc(Cl)cc2)cc1 [KN-92 (hydrochloride)] 0
CCN(CC)Cc1ccc(OC)c(-c2cc3c(-c4ccc(C(=O)O)c(C(C)C)c4)ccnc3[nH]2)c1 0
CN(C)C/C=C/C(=O)Nc1cc2c(Nc3ccc(F)c(Cl)c3)ncnc2cc1O[C@H]1CCOC1 [Afatinib (dimaleate)] 0
Oc1cccc(-c2nc(N3CCOCC3)c3oc4ncccc4c3n2)c1 [PI-103 (Hydrochloride)] 0
c1cc(-c2cnn3cc(-c4ccc(OCCN5CCCCC5)cc4)cnc23)ccn1 [Dorsomorphin] 0
COc1ccc(S(=O)(=O)N(CCO)c2ccccc2CN(C)C/C=C/c2ccc(Cl)cc2)cc1 [KN-93 (phosphate)] 0
Nc1ncnc2c1c(-c1ccc(Oc3ccccc3)cc1)nn2[C@@H]1CCCNC1 [IBT6A (hydrochloride)] 0

same assay, conditions: 10 µM; K562; 2-18 h

kinase-Nluc reporter destabilization hit call, inactive:
COc1cc2nccc(Oc3ccc(NC(=O)C4(C(=O)Nc5ccc(F)cc5)CC4)cc3)c2cc1OC [Cabozantinib (S-malate)] 0
Cn1cc(-c2cnc3ccc4ccc(CS(=O)(=O)NCc5ccccn5)cc4c(=O)c3c2)cn1 [MK-8033 (hydrochloride)] 0
CNC(=O)c1ccc(Nc2ncc(C(F)(F)F)c(NCc3nccnc3N(C)S(C)(=O)=O)n2)cc1 [Defactinib] 0
N#CCNC(=O)c1ccc(-c2ccnc(Nc3ccc(N4CCOCC4)cc3)n2)cc1 [Momelotinib] 0
CC(=O)c1c(C)c2cnc(Nc3ccc(N4CCNCC4)cn3)nc2n(C2CCCC2)c1=O [Palbociclib (isethionate)] 0
Nc1cncc(-c2cn3ccnc3c(Nc3ccc(N4CCN(C5COC5)CC4)cc3)n2)n1 [Lanraplenib (succinate)] 0
C#Cc1cccc(Nc2ncnc3cc4c(cc23)OCCOCCOCCO4)c1 [Icotinib] 0
O=C(O)c1ccc2c(c1)nc(Nc1cccc(Cl)c1)c1ccncc12 [Silmitasertib (sodium salt)] 0
CC(C)Nc1cc(-c2c[nH]c(C(=O)N[C@H](CO)c3cccc(Cl)c3)c2)c(Cl)cn1 [Ulixertinib (hydrochloride)] 0
C=CC(=O)N1CCN(c2ncnc3c(F)c(-c4c(O)cccc4F)c(Cl)cc23)CC1 0
CN(C)C(=O)c1cc2cnc(Nc3ccc(N4CCNCC4)cn3)nc2n1C1CCCC1 [Ribociclib] 0
COc1cc2c(-c3cnn4cc(N5CCC(N6CCN(C)CC6)CC5)cnc34)ccnc2cc1F [ALK2-IN-4 (succinate)] 0
CCN(CC)Cc1ccc(OC)c(-c2cc3c(-c4ccc(C(=O)O)c(C(C)C)c4)ccnc3[nH]2)c1 0
O=C(c1nn(-c2ccc(CN3CCOCC3)cc2)c2c1CS(=O)(=O)c1c(F)cccc1-2)N1CCOCC1 0
CC(C)(C)n1nc(-c2cccc3ccccc23)c2c(N)ncnc21 [1-Naphthyl PP1 (hydrochloride)] 0
CCN(CC)CC(=O)Nc1c(C)cccc1C [Lidocaine (hydrochloride)] 0
Cn1ncc(Cl)c1-c1cc(C(=O)N[C@H](CN)Cc2cccc(F)c2)sc1Cl [Afuresertib (hydrochloride)] 0
COc1cc2c(cc1OC)-c1c(C)c3ccc(OC)c(OC)c3c[n+]1CC2 [Dehydrocorydaline] 0
C[C@H](CCC(=O)NCCS(=O)(=O)O)[C@H]1CC[C@H]2[C@@H]3[C@@H](O)C[C@@H]4C[C@H](O)CC[C@]4(C)[C@H]3CC[C@]12C [Tauroursodeoxycholate (dihydrate)] 0
OCCn1cc(-c2cnc3nnn(Cc4ccc5ncccc5c4)c3n2)cn1 0
C[S+]([O-])c1ccc(-c2nc(-c3ccc(F)cc3)c(-c3ccncc3)[nH]2)cc1 (configuration not stated) 0
CC(C)(C)n1nc(-c2cccc3ccccc23)c2c(N)ncnc21 [1-Naphthyl PP1] 0
